Laboratory results reported in PMC7990204.
Results are given in words; binding and its absence hold for the method and conditions named. In cells and extracts the contact can be indirect. Some entries that bind do so weakly or less than the wild type.

Chains of the proteins cited; added tags and fusions are not shown.
UniProt Q6KCD5: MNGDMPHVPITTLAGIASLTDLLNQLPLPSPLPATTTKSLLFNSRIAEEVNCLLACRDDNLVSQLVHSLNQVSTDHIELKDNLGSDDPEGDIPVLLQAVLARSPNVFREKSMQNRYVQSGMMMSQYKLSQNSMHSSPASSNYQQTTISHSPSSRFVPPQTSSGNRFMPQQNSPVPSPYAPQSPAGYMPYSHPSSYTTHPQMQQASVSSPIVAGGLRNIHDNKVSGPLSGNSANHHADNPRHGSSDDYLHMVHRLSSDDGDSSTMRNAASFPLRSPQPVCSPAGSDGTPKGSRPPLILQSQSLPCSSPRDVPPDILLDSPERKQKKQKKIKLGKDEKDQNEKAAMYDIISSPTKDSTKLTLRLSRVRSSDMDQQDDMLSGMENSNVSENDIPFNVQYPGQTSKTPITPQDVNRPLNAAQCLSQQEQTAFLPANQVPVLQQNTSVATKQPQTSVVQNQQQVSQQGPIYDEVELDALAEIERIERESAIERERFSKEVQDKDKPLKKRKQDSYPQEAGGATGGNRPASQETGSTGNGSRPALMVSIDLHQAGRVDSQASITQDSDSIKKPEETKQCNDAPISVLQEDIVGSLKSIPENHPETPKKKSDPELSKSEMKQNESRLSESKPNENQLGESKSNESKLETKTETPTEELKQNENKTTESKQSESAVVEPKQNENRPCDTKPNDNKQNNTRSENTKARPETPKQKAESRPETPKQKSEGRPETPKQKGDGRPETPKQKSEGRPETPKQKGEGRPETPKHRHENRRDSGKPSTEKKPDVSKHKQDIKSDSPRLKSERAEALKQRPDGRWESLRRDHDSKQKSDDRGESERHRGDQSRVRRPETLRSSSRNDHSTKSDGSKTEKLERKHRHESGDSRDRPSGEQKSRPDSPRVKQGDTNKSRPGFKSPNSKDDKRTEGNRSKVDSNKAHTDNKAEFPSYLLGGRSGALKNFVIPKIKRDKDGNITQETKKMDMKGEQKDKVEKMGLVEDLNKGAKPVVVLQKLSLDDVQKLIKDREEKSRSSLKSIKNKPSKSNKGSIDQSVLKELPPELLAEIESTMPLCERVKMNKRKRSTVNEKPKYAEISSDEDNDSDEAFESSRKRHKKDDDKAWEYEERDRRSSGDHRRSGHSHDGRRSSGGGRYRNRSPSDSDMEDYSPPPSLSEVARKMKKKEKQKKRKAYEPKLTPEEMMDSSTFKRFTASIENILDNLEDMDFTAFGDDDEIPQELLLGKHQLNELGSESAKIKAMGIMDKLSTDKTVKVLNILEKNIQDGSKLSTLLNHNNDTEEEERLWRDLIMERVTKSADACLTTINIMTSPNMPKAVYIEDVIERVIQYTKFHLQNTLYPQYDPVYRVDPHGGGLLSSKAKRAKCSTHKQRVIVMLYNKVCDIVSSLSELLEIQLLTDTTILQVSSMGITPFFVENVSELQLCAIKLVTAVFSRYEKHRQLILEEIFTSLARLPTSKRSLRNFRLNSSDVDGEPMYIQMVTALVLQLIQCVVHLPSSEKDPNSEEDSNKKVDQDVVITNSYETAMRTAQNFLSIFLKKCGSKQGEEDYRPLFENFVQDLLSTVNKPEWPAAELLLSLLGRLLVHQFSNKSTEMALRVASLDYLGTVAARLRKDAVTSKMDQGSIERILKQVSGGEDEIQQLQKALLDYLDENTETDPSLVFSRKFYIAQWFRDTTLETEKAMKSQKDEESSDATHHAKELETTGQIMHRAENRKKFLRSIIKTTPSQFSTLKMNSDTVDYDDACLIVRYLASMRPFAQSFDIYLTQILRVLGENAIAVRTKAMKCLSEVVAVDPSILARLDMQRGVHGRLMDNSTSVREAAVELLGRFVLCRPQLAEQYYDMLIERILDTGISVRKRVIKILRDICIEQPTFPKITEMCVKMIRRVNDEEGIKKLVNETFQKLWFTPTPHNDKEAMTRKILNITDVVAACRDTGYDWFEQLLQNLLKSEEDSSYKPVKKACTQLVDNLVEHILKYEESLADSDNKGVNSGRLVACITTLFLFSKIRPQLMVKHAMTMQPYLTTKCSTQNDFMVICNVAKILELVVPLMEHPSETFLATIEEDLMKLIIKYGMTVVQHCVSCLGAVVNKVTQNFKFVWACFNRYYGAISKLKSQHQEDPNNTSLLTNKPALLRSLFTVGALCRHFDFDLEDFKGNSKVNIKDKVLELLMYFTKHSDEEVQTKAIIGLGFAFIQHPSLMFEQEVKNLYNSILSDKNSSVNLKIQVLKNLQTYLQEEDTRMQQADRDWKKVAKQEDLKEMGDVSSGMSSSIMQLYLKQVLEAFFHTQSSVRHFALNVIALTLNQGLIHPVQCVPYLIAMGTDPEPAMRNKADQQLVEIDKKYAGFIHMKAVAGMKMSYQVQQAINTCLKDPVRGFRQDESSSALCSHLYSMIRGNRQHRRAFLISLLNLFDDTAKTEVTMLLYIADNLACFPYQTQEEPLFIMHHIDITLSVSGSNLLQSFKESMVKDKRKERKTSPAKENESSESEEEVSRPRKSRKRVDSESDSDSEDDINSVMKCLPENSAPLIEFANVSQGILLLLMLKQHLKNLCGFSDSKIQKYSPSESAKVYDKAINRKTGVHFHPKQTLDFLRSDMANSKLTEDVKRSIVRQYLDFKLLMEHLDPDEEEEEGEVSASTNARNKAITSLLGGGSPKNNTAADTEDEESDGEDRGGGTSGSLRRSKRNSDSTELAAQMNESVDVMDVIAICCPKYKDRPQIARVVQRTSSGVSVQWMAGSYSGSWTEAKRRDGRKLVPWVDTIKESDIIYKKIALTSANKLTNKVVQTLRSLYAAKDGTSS

T1: SMC1A-R586W (mouse (endogenous in V6.5 mESCs)) (UniProt Q9CU62)
T1 sequence: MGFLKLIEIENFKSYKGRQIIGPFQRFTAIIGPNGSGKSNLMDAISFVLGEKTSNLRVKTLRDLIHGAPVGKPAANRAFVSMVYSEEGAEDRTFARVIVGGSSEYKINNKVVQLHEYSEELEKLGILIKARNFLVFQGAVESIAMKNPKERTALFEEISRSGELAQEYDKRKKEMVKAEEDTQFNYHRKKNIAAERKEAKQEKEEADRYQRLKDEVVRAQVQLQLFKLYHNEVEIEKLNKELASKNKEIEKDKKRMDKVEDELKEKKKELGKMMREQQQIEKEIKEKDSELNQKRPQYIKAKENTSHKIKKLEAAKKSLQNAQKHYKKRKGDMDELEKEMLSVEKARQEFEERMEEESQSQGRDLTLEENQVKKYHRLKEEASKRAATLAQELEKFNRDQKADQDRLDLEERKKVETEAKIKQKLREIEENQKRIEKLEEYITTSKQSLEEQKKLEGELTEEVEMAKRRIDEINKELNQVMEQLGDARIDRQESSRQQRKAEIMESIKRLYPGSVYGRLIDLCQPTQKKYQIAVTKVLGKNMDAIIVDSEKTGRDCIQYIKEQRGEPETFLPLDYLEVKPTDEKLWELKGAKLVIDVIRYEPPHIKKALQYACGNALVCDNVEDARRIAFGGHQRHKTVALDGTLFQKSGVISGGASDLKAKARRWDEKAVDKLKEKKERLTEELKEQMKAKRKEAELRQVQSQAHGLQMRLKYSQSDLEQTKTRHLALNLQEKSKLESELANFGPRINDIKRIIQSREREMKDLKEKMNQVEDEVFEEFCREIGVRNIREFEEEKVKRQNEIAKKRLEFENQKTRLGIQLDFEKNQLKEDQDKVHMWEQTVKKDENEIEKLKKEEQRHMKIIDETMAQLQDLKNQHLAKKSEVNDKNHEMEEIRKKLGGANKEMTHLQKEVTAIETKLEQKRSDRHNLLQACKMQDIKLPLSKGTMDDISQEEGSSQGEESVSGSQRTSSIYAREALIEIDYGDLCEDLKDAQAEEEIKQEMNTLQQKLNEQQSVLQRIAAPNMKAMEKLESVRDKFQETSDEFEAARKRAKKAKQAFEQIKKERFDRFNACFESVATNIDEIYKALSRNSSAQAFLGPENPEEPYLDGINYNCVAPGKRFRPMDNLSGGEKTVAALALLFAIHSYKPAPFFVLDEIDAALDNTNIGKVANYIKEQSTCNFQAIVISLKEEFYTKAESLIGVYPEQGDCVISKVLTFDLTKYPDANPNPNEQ

T2: SMC1A (wildtype) (mouse (endogenous in V6.5 mESCs)) (UniProt Q9CU62)
T2 sequence: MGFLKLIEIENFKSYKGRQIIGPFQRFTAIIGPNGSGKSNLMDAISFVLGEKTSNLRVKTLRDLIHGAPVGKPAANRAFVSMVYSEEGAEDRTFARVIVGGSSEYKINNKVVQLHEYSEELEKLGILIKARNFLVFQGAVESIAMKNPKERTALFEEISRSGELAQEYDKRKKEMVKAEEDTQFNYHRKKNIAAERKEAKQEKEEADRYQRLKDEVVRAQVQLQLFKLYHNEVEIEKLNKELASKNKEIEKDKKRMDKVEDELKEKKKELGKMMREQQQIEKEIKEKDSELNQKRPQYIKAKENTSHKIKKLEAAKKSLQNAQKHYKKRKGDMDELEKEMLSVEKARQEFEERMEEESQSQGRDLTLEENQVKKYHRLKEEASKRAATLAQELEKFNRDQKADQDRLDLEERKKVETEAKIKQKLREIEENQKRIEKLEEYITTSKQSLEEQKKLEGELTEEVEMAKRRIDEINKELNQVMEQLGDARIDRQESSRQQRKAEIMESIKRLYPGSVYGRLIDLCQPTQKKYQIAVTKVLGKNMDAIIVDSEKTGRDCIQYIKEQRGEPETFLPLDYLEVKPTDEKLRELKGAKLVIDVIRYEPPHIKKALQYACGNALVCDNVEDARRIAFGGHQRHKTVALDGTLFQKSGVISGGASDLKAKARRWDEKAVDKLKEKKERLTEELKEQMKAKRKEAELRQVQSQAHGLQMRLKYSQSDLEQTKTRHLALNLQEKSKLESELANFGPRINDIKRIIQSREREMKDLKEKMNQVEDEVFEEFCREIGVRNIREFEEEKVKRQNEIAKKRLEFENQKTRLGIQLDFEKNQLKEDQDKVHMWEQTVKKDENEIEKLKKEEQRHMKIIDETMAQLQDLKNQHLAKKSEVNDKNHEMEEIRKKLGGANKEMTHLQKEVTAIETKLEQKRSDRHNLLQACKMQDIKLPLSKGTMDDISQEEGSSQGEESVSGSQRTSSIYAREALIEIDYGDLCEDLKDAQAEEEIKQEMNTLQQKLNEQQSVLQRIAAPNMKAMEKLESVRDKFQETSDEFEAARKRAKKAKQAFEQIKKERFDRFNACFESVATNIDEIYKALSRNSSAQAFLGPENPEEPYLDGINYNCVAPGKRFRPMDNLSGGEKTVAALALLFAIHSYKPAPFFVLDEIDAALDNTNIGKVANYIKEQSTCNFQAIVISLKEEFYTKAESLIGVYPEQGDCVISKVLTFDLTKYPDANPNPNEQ


Tests used:
[1] = target: T1, SMC1A-R586W (mouse (endogenous in V6.5 mESCs)); assay: co-IP; endogenous proteins; 250 ug benzonase-treated nuclear extract of wildtype or SMC1A-R586W mESCs in 500 ul 1x low-stringency IP buffer, overnight at 4 C; 10 ug antibody (SMC1A, NIPBL, STAG2 or non-specific rabbit IgG) on Protein G Dynabeads; western blot
[2] = target: T2, SMC1A (wildtype) (mouse (endogenous in V6.5 mESCs)); assay: as above

Molecule | binding [1] | binding [2]
NIPBL (from UniProt Q6KCD5 1-2798) | binds | binds
PDS5A (protein, UniProt Q6A026 1-1332) MDFTQPKPATALCGVVSADGKIAYPPGVKEITDKITTDEMIKRLKMVVKTFMDMDQDSEDEKQQYLPLALHLASEFFLRNPNKDVRLLVACCLADIFRIYAPEAPYTSHDKLKDIFLFITRQLKGLEDTKSPQFNRYFYLLENLAWVKSYNICFELEDCNEIFIQLFRTLFSVINNSHNTKVQMHMLDLMSSIIMEGDGVTQELLDSILINLIPAHKNLNKQSFDLAKVLLKRTVQTIEACIANFFNQVLVLGRSSVSDLSEHVFDLIQELFAIDPQLLLSVMPQLEFKLKSNDGEERLAVVRLLAKLFGSKDSDLATQNRPLWQCFLGRFNDIHVPVRLESVKFASHCLMNHPDLAKDLTEYLKVRSHDPEEAIRHDVIVTIITAAKRDLALVNDQLLGFVRERTLDKRWRVRKEAMMGLAQLYKKYCLHGEAGKEAAEKVSWIKDKLLHIYYQNSIDDKLLVEKIFAQYLVPHNLETEERMKCLYYLYASLDPNAVKALNEMWKCQNMLRSHVRELLDLHKQPTSEANCSAMFGKLMTIAKNLPDPGKAQDFVKKFNQVLGDDEKLRSQLELLISPTCSCKQADVCVREIARKLANPKQPTNPFLEMVKFLLERIAPVHIDSEAISALVKLMNKSIEGTADDEEEGVSPDSAIRSGLELLKVLSFTHPTSFHSAETYESLLQCLRMEDDKVAEAAIQIFRNTGHKIETDLPQIRSTLIPILHQKAKRGTPHQAKQAVHCIHAIFSNKEVQLAQIFEPLSRSLNADVPEQLITPLVSLGHISMLAPDQFASPMKSVVANFIVKDLLMNDRSTGEKNGKLWSPDEEVSPEVLAKVYLLRLLVRWLLGMKNNQSKSANSTLRLLSAMLVSEGDLTEQKRISKSDMSRLRLAAGSAIMKLAQEPCYHEIITPEQFQLCALVINDECYQVRQIFAQKLHKALVKLLLPLEYMAIFALCAKDPVKERRAHARQCLLKNISIRREYIKQNPMATEKLLSLLPEYVVPYMIHLLAHDPDFTRSQDVDQLRDIKECLWFMLEVLMTKNENNSHAFMKKMAENIKLTRDAQSPDESKTNEKLYTVCDVALCVINSKSALCNADSPKDPVLPMKFFTQPEKDFCNDKSYISEETRVLLLTGKPKPTGVLGTVNKPLSATGRKPYVRSAGTETGSNINANSELSPSAGSRSREQSSEASETGVSENEENPVRIISVTPVKNIDTVKNKEINSDQSTQGNISSDRGKKRIVTAAGAENIQKPDEKVDESGPPAPSKPRRGRRPKSESQGNATKNDDLNKPVSKGRKRAAGSQESLEAGNAKAPKLQDGAKKAVPAERQIDLQR | binds | –
PDS5B (protein, UniProt Q4VA53 1-1446) MAHSKTRTNDGKITYPPGVKEISDKISKEEMVRRLKMVVKTFMDMDQDSEEEKELYLNLALHLASDFFLKHPDKDVRLLVACCLADIFRIYAPEAPYTSPDKLKDIFMFITRQLKGLEDTKSPQFNRYFYLLENIAWVKSYNICFELEDSNEIFTQLYRTLFSVINNGHNQKVHMHMVDLMSSIICEGDTVSQELLDTVLVNLVPAHKNLNKQAYDLAKALLKRTAQAIEPYITNFFNQVLMLGKTSISDLSEHVFDLILELYNIDSHLLLSVLPQLEFKLKSNDNEERLQVVKLLAKMFGAKDSELASQNKPLWQCYLGRFNDIHVPIRLECVKFASHCLMNHPDLAKDLTEYLKVRSHDPEEAIRHDVIVSIVTAAKKDILLVNDHLLNFVRERTLDKRWRVRKEAMMGLAQIYKKYSLQSAAGKDAAKQISWVKDKLLHIYYQNSIDDRLLVERIFAQYMVPHNLETTERMKCLYYLYATLDLNAVKALNEMWKCQNLLRHQVKDLLDLIKQPKTDASVKAIFSKVMVITRNLPDPGKAQDFMKKFTQVLEDDEKIRKQLEALVSPTCSCKQAEGCVREITKKLGNPKQPTNPFLEMIKFLLERIAPVHIDTESISALIKQVNKSIDGTADDEDEGVPTDQAIRAGLELLKVLSFTHPISFHSAETFESLLACLKMDDEKVAEAALQIFKNTGSKIEEDFPHIRSALLPVLHHKSKKGPPRQAKYAIHCIHAIFSSKETQFAQIFEPLHKSLDPSNLEHLITPLVTIGHIALLAPDQFAAPLKSLVATFIVKDLLMNDRLPGKKTTKLWVPDEEVSPETMVKIQAIKMMVRWLLGMKNNHSKSGTSTLRLLTTILHSDGDLTEQGKISKPDMSRLRLAAGSAIVKLAQEPCYHEIITLEQYQLCALAINDECYQVRQVFAQKLHKGLSRLRLPLEYMAICALCAKDPVKERRAHARQCLVKNITVRREYLKQHAAVSEKLLSLLPEYVVPYTIHLLAHDPDYVKVQDIEQLKDVKECLWFVLEILMAKNENNSHAFIRKMVENIKQTKDAQGPDDTKMNEKLYTVCDVAMNIIMSKSTTYSLESPKDPVLPARFFTQPDKNFSNTKNYLPPEMKSFFTPGKPKTANVLGAVNKPLSSAGKQSQTKSSRMETVSNASSSSNPSSPGRIKGRLDSSEMDHSENEDYTMSSPLPGKKSDKREDPDLSELEKPRSRKKAPVTDPEEKLGMDDLTKLVQEQKPKGSQRGRKRGRTASDSDEQQWPEEKRHKEELLENEDEQNSPPKKGKRGRPPKPLGGGTSKEEPTMKTSKKGNKKKLVPPVVDDDEEEERQIGNTEHKSKSKQHRTSKRAQQRAESPETSAVESTQSTPQKGRGRPSKAPSPSQPPKKIRVGRSKQVATKENDSSEEMDVLQASSPVSDDTTQEGAEEEDISVGNVRRRSSKRERR | binds | –
